The results in this text go back to PMC1865385.

By UniProt entry, the sequences of proteins in these tests, tags left out.
UniProt P62258: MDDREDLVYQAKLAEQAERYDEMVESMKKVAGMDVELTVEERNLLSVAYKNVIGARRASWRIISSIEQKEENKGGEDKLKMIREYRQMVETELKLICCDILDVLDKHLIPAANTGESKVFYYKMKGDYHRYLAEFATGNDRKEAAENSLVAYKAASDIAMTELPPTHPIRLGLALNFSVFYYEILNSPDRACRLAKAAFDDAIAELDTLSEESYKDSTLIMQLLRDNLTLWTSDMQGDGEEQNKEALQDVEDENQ

Results are given in words; binding and its absence hold for the method and conditions named. Binding seen in cells or lysates may run through a third protein. Some binding calls cover weakened binding; strength is not graded here.

Experiment [1] addresses human 14-3-3ε protein (wild type) (human) (UniProt P62258). Briefly: co-IP; 1 mg total protein extract of yeast expressing wild-type human 14-3-3ε, incubated at 30°C for 30 min in the absence of R18; immunoprecipitation with anti-14-3-3ε antibody, blot with anti-Ras2 antibody.
For experiment [2] the target is unchanged. As to the kind of experiment: co-IP; 1 mg total protein extract of yeast expressing wild-type human 14-3-3ε, incubated at 30°C for 30 min with 100 μM R18 peptide; immunoprecipitation with anti-14-3-3ε antibody, blot with anti-Ras2 antibody.

B1: yeast Ras2 protein (protein, UniProt P01120 1-322)
chain: MPLNKSNIREYKLVVVGGGGVGKSALTIQLTQSHFVDEYDPTIEDSYRKQVVIDDEVSILDILDTAGQEEYSAMREQYMRNGEGFLLVYSITSKSSLDELMTYYQQILRVKDTDYVPIVVVGNKSDLENEKQVSYQDGLNMAKQMNAPFLETSAKQAINVEEAFYTLARLVRDEGGKYNKTLTENDNSKQTSQDTKGSGANSVPRNSGGHRKMSNAANGKNVNSSTTVVNARNASIESKTGLAGNQATNGKTQTDRTNIDNSTGQAGQANAQSANTVNNRVNNNSKAGQVSNAKQARKQQAAPGGNTSEASKSGSGGCCIIS
Consider B1, for which the figures for the binding result in experiment [1] and in experiment [2] were “binds” and “no binding (condition: with 100 μM of R18 peptide)”, respectively.
